Measured values from patent US20250283138A1.
No constants are given. Whether binding was seen depends on the method and setting. Some entries that bind do so weakly or less than the wild type. Sequences can lack the tags named with a protein.

Target: E. coli glutathione transferase ecGST(103FSY) (E. coli) (UniProt P0A9D2)
Experiment: homodimer crosslinking in E. coli, FSY at site 103, anti-His Western blot

B1: E. coli glutathione transferase ecGST(103FSY) (enzyme)
chain: MKLFYKPGACSLASHITLRESGKDFTLVSVDLMKKRLENGDDYFAVNPKGQVPALLLDDGTLLTEGVAIMQYLADSVPDRQLLAPVNSISRYKTIEWLNYIATELHKGFTPLFRPDTPEEYKPTVRAQLEKKLQYVNEALKDEHWICGQRFTIADAYLFTVLRWAYAVKLNLEGLEHIAAFMQRMAERPEVQDALSAEGLK
modifications: FSY (fluorosulfate-L-tyrosine) at site 103
binding: binds
